These are yes or no findings as the source states them, for the method shown.
Legend:
[1] = molecular target: T1, MARC-3 C-terminal cytoplasmic region (MARC-3C, 179-431 aa) (C. elegans) (UniProt Q93227); experiment: two-hybrid; DupLEX-A Yeast Two-Hybrid System; MARC-3 regions as bait (pEG202), other proteins as prey (pJG4-5); yeast EGY48 with the lacZ reporter pSH18-34; X-gal plates
T1 sequence: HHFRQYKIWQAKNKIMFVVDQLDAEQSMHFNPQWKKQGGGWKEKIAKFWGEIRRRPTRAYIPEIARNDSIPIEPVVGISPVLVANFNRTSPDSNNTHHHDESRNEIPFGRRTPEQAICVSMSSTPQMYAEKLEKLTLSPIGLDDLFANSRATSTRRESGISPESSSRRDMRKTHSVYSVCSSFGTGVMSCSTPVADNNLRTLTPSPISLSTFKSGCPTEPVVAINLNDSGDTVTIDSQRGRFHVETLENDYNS

[2] = molecular target: T2, MARC-3 N-terminal cytoplasmic region (MARC-3N, 1-98 aa) (C. elegans) (UniProt Q93227); experiment: as above
T2 sequence: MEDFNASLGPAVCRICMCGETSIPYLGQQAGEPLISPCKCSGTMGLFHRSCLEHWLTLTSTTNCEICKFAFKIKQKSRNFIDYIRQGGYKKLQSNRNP

binding [1]: no binding | binding [2]: no binding
Substance: MBK-2 (full length isoform a, 1-508 aa) (C. elegans) (enzyme)

— article PMC10817901
